These are yes or no findings as the source states them, for the method shown. Some binding calls cover weakened binding; strength is not graded here.

Amino acid sequences for entries named in this document (tags omitted). A change or cut given only in a name is not applied to a line headed by its entry. Residues count along the entry.
UniProt O08538, residues 20-498: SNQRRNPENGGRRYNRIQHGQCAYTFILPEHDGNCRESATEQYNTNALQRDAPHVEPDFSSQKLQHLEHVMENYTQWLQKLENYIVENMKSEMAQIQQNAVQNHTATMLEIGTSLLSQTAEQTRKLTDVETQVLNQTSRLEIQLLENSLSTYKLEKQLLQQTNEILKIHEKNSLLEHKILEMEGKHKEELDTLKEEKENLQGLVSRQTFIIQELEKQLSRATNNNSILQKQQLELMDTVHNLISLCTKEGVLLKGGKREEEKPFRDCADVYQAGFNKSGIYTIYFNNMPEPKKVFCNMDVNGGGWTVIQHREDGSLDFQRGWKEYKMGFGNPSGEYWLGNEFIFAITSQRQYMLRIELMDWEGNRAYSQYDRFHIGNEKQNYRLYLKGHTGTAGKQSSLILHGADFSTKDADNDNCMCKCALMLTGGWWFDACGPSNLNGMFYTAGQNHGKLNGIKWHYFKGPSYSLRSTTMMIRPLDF
UniProt O15123: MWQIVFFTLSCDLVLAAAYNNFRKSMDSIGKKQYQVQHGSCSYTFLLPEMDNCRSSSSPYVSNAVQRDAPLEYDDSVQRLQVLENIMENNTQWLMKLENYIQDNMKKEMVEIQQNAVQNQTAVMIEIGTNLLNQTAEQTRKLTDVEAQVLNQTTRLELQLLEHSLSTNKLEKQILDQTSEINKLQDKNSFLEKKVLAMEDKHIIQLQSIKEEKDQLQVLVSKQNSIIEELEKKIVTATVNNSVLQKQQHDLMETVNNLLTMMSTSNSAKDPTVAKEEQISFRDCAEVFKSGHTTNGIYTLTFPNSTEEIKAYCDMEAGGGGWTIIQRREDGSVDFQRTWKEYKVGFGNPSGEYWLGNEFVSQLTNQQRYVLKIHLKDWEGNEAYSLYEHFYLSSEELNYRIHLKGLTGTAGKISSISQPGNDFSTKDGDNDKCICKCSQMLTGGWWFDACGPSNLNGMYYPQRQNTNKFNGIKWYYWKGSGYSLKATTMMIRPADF

Experiment [1] deals with mouse TIE-2 ligand (clone from the C2C12 ras cDNA library, pJFE14 encoding TIE-2 ligand, ATCC 75910) (mouse) (UniProt O08538). Briefly: staining of fixed, permeabilized transfected COS-7 cells with TIE-2 RB, anti-human IgG-alkaline phosphatase.
Experiment [2] has as its target human TIE-2 ligand 2 (human) (UniProt O15123). Briefly: staining of permeabilized transfected COS cells with TIE-2 receptorbody, anti-human IgG-alkaline phosphatase.

As to “TIE-2 receptorbody (entire extracellular portion of the rat TIE-2 receptor fused to the human immunoglobulin gamma-1 constant region, IgG1 Fc) (from UniProt A0ABK0L6J5 19-740) (Fc fusion)”, the binding result in experiment [1] and in experiment [2] was “binds” in each case.

Source of the values: US20050186665A1.
